Assay results taken from paper PMC5717399.
No constants are given. Whether binding was seen depends on the method and setting. For part of these data: In cells and extracts the contact can be indirect. Some binding calls cover weakened binding; strength is not graded here.

The chains behind the UniProt entries cited, without tags or fusion partners. Where a name states a change or a piece, a line headed by the entry shows the natural chain unless it says otherwise. A line that says so, or that is headed by a name, gives the form on record, which may keep a tag or linker.
UniProt Q9NWU2: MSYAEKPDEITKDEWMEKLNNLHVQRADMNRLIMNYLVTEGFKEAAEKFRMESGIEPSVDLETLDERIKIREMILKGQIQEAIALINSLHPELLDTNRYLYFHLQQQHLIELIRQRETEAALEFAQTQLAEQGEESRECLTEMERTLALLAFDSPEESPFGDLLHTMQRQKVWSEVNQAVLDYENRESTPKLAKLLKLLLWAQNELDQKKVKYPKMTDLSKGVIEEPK
Flag-Twa1-ΔCRA (Q9NWU2, form named): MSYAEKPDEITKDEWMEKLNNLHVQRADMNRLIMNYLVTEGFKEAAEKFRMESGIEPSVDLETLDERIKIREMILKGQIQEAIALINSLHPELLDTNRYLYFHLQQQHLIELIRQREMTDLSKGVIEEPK
UniProt P35222: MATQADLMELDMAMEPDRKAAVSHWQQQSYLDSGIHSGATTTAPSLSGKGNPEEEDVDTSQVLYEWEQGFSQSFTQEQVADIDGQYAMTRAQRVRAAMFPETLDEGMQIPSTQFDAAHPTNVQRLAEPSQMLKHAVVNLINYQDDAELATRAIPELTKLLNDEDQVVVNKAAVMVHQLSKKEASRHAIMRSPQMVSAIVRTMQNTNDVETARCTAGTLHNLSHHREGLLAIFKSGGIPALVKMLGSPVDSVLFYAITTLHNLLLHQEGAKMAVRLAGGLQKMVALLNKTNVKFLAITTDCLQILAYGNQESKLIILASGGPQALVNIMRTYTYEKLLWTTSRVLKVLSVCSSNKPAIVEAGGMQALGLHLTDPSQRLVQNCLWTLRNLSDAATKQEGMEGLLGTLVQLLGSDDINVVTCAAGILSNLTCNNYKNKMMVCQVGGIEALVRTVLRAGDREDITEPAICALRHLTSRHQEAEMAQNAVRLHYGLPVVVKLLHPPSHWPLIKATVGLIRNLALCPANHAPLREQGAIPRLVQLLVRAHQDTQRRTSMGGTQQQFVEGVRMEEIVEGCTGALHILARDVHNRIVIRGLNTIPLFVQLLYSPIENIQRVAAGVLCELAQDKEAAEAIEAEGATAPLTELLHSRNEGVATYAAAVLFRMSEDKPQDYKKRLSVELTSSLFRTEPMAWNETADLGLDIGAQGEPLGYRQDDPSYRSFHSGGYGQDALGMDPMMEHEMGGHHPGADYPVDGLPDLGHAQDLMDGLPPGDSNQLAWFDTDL
UniProt P49841: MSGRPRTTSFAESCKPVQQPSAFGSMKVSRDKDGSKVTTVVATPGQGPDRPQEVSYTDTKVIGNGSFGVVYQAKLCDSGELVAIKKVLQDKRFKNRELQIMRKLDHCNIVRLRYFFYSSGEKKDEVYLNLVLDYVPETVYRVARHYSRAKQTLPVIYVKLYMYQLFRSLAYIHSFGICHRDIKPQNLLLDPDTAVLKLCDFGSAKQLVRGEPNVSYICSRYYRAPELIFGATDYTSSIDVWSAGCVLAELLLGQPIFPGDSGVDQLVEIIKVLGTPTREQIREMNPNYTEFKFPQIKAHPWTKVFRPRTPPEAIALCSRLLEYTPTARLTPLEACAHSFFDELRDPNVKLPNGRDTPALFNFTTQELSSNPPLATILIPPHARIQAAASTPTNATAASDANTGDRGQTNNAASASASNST
UniProt Q9NQB0: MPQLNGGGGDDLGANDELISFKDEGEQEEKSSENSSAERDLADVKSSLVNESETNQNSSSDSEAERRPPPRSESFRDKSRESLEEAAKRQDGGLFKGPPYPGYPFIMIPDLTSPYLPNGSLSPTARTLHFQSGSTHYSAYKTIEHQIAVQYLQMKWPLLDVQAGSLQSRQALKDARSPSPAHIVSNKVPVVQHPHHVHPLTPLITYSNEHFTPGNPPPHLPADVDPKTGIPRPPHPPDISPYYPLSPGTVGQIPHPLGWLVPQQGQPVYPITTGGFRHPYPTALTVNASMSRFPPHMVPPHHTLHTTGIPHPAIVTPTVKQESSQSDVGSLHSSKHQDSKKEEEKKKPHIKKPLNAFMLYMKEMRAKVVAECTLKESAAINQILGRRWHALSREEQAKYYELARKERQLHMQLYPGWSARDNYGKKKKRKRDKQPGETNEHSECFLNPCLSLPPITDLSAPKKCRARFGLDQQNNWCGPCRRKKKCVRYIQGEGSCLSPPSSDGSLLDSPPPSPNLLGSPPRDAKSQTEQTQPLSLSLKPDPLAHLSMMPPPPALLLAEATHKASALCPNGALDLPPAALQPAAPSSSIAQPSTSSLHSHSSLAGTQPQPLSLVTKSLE

How the values were obtained:
GST-Twa1-ΔCRA (human) = GST-Twa1-ΔCRA (human) (UniProt Q9NWU2); experiment: pull-down; GST pull-down: purified proteins incubated in 20 mM Tris pH 8.0, 150 mM NaCl, 0.5% NP-40, 5 mM EGTA, 1.5 mM EDTA at 4 °C for 4 h, then glutathione-agarose beads for 2 h; western blotting; both purified
[1] = target: endogenous Twa1 (human (endogenous in HEK-293)) (UniProt Q9NWU2); experiment: co-IP; nuclear fractions of HEK-293 cells treated with Wnt3a-CM; in Figure 5F anti-Myc antibody, increasing amounts of HA-TCF4 plasmid
Flag-Twa1 (human) = Flag-Twa1 (human) (UniProt Q9NWU2); experiment: co-IP; lysates of HEK-293 cells (transfected or not; Wnt3a-CM or Ctr-CM; Twa1 knock-down or knockout in some panels) incubated with the indicated antibodies at 4 °C overnight, Protein A/G Sepharose beads, western blotting
[2] = target: endogenous Twa1 (human (endogenous in HEK-293)) (UniProt Q9NWU2); experiment: as above
Myc-Twa1 (human) = Myc-Twa1 (human) (UniProt Q9NWU2); experiment: co-IP; sequential immunoprecipitation: anti-Flag antibody, elution with Flag peptide, then anti-Myc antibody or control IgG; lysates of HEK-293 cells transfected with HA-GSK3β, Myc-Twa1 and Flag-Axin
Flag-Twa1-ΔCRA (human) = Flag-Twa1-ΔCRA (human) (UniProt Q9NWU2); experiment: co-IP; lysates of HEK-293 cells (transfected or not; Wnt3a-CM or Ctr-CM; Twa1 knock-down or knockout in some panels) incubated with the indicated antibodies at 4 °C overnight, Protein A/G Sepharose beads, western blotting

In the case of “His-β-catenin (from UniProt P35222 1-781)”, the binding (GST-Twa1-ΔCRA (human)) is reported as “no binding”.
In the case of “endogenous β-catenin (from UniProt P35222 1-781)”, the binding [1] is reported as “binds”, the binding (Flag-Twa1 (human)) is reported as “binds” and the binding [2] is reported as “binds”.
In the case of “HA-GSK3β (from UniProt P49841 1-420) (enzyme)”, the binding (Myc-Twa1 (human)) is reported as “binds” and the binding (Flag-Twa1 (human)) is reported as “binds”.
“endogenous TCF4 (from UniProt Q9NQB0 1-619)” was tested, and the binding (Flag-Twa1 (human)) was “no binding”.
In the case of “β-catenin (co-IP of Figure 3B) (from UniProt P35222 1-781)”, the binding (Flag-Twa1 (human)) is reported as “binds” and the binding (Flag-Twa1-ΔCRA (human)) is reported as “no binding”.
